Where a chain is given by its changes, count along the chain named. Weaker means in comparison with the reference protein, sequence or condition of that experiment. Tags and fusion partners may be left off the protein sequences shown.

The values that follow come from paper PMC10164551, “Structural basis of tRNAPro acceptor stem recognition by a bacterial trans-editing domain”.

The target of series [1] is T1, ProXp-ala R80A (Caulobacter crescentus) (UniProt Q9ABV9).
T1 sequence (looked up): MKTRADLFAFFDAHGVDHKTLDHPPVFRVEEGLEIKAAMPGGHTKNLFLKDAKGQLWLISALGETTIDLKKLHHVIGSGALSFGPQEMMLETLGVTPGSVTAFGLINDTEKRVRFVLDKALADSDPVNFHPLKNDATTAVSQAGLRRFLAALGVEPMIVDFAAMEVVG
The experiment in a line: AUC. The note with it: 1 mM MgCl2, sw at 9.6 μM similar to apo RNA, very weak interaction; AUC: 50 mM HEPES pH 6.8, 30 mM KCl, 1 mM MgCl2, 20 °C; recombinant protein; residues 1-168.

For series [2], the target named is T2, ProXp-ala K45A (Caulobacter crescentus) (UniProt Q9ABV9).
T2 sequence (looked up): T1 sequence (looked up) with K45A, A80R
The experiment in a line: NMR. The note with it: small CSPs, reduced binding; NMR: same phosphate buffer, 10% D2O, 25 °C; recombinant protein; residues 1-168.

For CGGCGAGUUCGCUCGCCGACCA [microhelixPro], the binding result in series [1] is reported as “binds more weakly”.
As for “CGGCGAGGGAGGUUCGAAUCCUCUCUCGCCGACCA [minihelixPro]”, in series [2], the binding result was “binds more weakly”.
